Assay results published in PubChem BioAssay AID1347076 (National Center for Advancing Translational Sciences (NCATS), 2019).
About 13,000 (3.2%) of roughly 400,000 compounds were called active. The shares of active, inactive and inconclusive entries below differ from those in the screen. The call rests on the fitted dose curve; in most records, active means well fitted cell-killing curve with a large enough effect; inconclusive means small, poorly fitted or top-dose-only effect, or effect the other way; inactive means flat fitted curve, though single readings scatter. A potency beside an inconclusive call is a rough fit, not a confirmed value.

Assay: qHTS assay for MDR1-selective chemotherapeutics: Primary screen using the drug-selected MDR subline cells KB-V1; further: nearly all actives have a fitted effect of over 60% in size
Conditions: KB-V1 MDR cells viability, CellTiter-Glo, 72 h; activity change, negative = cytotoxicity: at 46.1 µM (top of the series)
How it was run: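 In this primary screen, KB-V1 cells overexpressing P-gp are incubated with library compounds (lowest to highest concentration) for 72 h at 37 degrees C before a luminescent ATP viability read.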
On the % scale 0 is the no-effect control and ±100 the full control effect; potency means the concentration at half of the fitted maximal effect.

Row | Compound | activity change, negative = cytotoxicity | Potency
1 | CCN(Cc1ccccc1)S(=O)(=O)c1cc(C(=O)NC(C)C2CC3CCC2C3)ccc1OC (stereo not given) | inactive: -4.25% | –
2 | Cc1cc(NC2CCCC2)n2ncc(-c3ccccc3)c2n1 | inactive: -15.4% | –
3 | CC(C)N1CCC(N2CCN(C3CCCC3)CC2CCO)CC1 (stereo not given) | inactive: 3.71% | –
4 | COc1cc(NCc2ccccc2)c2ncn(Cc3ccccc3)c2c1 | – | inconclusive: 13 µM [rising, partial curve]
5 | COc1ccc(C2CCc3cc4c(cc3C2=NO)OCO4)cc1OC (stereo not given) | – | inconclusive: 23.1 µM [cytotoxic, single point]
6 | CCCC(=O)N1CCCC(c2cc(C(=O)NCc3cccnc3)no2)C1 (stereo not given) | inactive: 4.73% | –
7 | Cc1cccc(C(=O)Nc2ccc(NC(=O)c3cccc(C)c3)cc2)c1 | inactive: 17.1% | –
8 | CS(=O)(=O)N1CCc2cc(C(=O)NCc3ccccc3)ccc21 | – | inconclusive: 32.6 µM [rising, single point]
9 | Cc1cccc(-n2c3nc(=O)n(C)c(=O)c-3cc3ccc(Cl)cc32)c1C | inactive: 2.25% | –
10 | Cc1oc(-c2ccc(Cl)cc2)nc1CSCC(=O)NCCCN1CCOCC1 | – | active: 16.4 µM
11 | CCc1c(C)nc2ncnn2c1N1CCC(C(=O)Nc2ccccc2)CC1 | – | inconclusive: 29.1 µM [cytotoxic, single point]
12 | S=c1[nH]c2nc(Cl)c(Cl)nc2[nH]1 | inactive: 18% | –
13 | COc1cccc(C(O)c2nc(-c3cccc(CO)c3)cs2)c1 (stereo not given) | inactive: -0.496% | –
14 | Cc1ccc(NC(=O)CNc2ccc(OC(C)C)cc2)cc1 | – | inconclusive: 18.4 µM [cytotoxic, partial curve]
15 | OCC[N+]1(CCc2ccccc2)CCOCC1 | inactive: 7.64% | –
16 | COc1ccc(NC(=O)C(C)SCc2ccccc2)cc1OC (stereo not given) | – | active: 23.1 µM
17 | Cc1nc(SCC(=O)c2cccs2)c2oc3ccccc3c2n1 | – | inconclusive: 18.4 µM [cytotoxic, single point]
18 | Cc1ccc(NC(=O)N[C@@H](CC(C)C)C(=O)O)c(C)c1 | inactive: 0% | –
19 | COc1ccc(Cl)c2c1[nH]c1nc(SCc3ccccn3)nnc12 | – | inconclusive: 5.8 µM [cytotoxic, partial curve, poor fit]
20 | O=C(CSc1nc(=O)n(Cc2ccco2)c2c1CCC2)NCc1ccc(F)cc1 | inactive: -13% | –
21 | COC(=O)c1ccc(S(=O)(=O)N2CCCN(Cc3ccccc3)CC2)n1C | – | inconclusive: 16.4 µM [cytotoxic, single point]
22 | O=C(Nc1ccc(N=Nc2ccccc2)c(NC(=O)C2CCCO2)c1)C1CCCO1 (stereo not given) | – | inconclusive: 29.1 µM [cytotoxic, single point]
23 | CCCc1ccccc1OCCNS(=O)(=O)c1cc2c(cc1C)OCC(=O)N2 | – | inconclusive: 20.6 µM [cytotoxic, single point]
24 | COc1ccc(CN2CCC(CNS(=O)(=O)c3cccc(C(F)(F)F)c3)CC2)cc1 | – | inconclusive: 9.2 µM [cytotoxic, partial curve, poor fit]

Row | Compound | activity change, negative = cytotoxicity | Potency
25 | COc1cccc(C2=CC(c3ccc(N(C)C)cc3)n3nnnc3N2)c1 (stereo not given) | – | active: 13 µM
26 | CCCc1nc2oc3c(NCCOCCO)ncnc3c2c2c1COC(C)(C)C2 | – | inconclusive: 8.2 µM [cytotoxic, partial curve]
27 | Cc1ccc(S(=O)(=O)NCc2ccc(C(=O)N3CCN(c4ccc([N+](=O)[O-])cc4)CC3)cc2)cc1 | – | inconclusive: 18.4 µM [cytotoxic, partial curve, poor fit]
28 | Cc1cc(C)n(CCOc2ccc(Cl)cc2Cl)n1 | – | inconclusive: 23.1 µM [cytotoxic, partial curve, poor fit]
29 | COc1ccc(S(=O)(=O)NCCN2CCOCC2)cc1[N+](=O)[O-] | – | inconclusive: 18.4 µM [rising, partial curve, poor fit]
30 | O=c1c(Cl)c(Nc2cccc(Cl)c2)cnn1-c1nc2ccccc2s1 | inactive: -24.7% | –
31 | Cc1ccc(S(=O)(=O)c2nnn3c2nc(N2CCN(c4ccccc4F)CC2)c2ccccc23)cc1C | inactive: 10% | –
32 | COC(=O)c1ccc(OC)c(CSc2nnc(-c3ccc(C(C)(C)C)cc3)o2)c1 | – | inconclusive: 13 µM [cytotoxic, partial curve]
33 | CCOC(=O)N1CCN(C(=O)C2CCCN(S(=O)(=O)c3ccccc3)C2)CC1 (stereo not given) | – | inconclusive: 23.1 µM [cytotoxic, partial curve, poor fit]
34 | CCC1(C)Cc2c(C#N)c(N)n(-c3ccccc3)c(=O)c2CO1 (stereo not given) | – | inconclusive: 18.4 µM [cytotoxic, partial curve]
35 | CC1CCCCC12NC(=O)N(CC(=O)NCCc1ccccn1)C2=O (stereo not given) | – | inconclusive: 20.6 µM [rising, partial curve, poor fit]
36 | CCNC(=S)N1CCN(c2ccccc2OCC)CC1 | – | inconclusive: 20.6 µM [cytotoxic, partial curve]
37 | CCCCOc1cccc2c(=O)n(CC(=O)Nc3ccc4c(c3)OCCO4)ccc12 | – | inconclusive: 3.66 µM [cytotoxic, full curve]
38 | COc1ccccc1N1CCN(S(=O)(=O)CCNC(=O)CC2CCCCC2)CC1 | – | inconclusive: 14.6 µM [cytotoxic, partial curve]
39 | Cc1ccc2oc(=O)cc(CN3CCC(C)CC3)c2c1 | – | inconclusive: 9.2 µM [cytotoxic, partial curve]
40 | O=C(Nc1ccn(CC(=O)N2CCN(c3ccccn3)CC2)c(=O)n1)OCc1ccccc1 | – | inconclusive: 13 µM [rising, single point]
41 | O=C(NCc1cccnc1)c1cc(S(=O)(=O)N2CCCC2)c(Cl)cc1Cl | – | inconclusive: 20.6 µM [cytotoxic, single point]
42 | O=c1[nH]c2cc([N+](=O)[O-])c([N+](=O)[O-])cc2[nH]c1=O | inactive: -2.49% | –
43 | CC1Cc2cc(S(=O)(=O)N3CCC(C(=O)N(C)Cc4ccccc4)CC3)ccc2N1C(=O)C1CC1 (stereo not given) | inactive: -11.8% | –
44 | CCc1cc2c(N3CCN(C(=O)c4ccco4)CC3)ncnc2s1 | – | inconclusive: 5.8 µM [cytotoxic, partial curve]
45 | CCOc1cc(/C=C2/C(=O)ON=C2C)ccc1OCc1ccccc1 | inactive: 1.94% | –
46 | CCOc1ccc(S(=O)(=O)NC(C)(C)C)cc1-c1nc2c(C(C)(C)C)nn(C)c2c(=O)[nH]1 | inactive: -2.76% | –
47 | COc1ccccc1CNC(=O)c1cc2c(C)nn(Cc3ccc(F)cc3)c2s1 | inactive: -8.47% | –
48 | Cc1cccc(C2=NN(c3ccccc3)[C@H](CO)[C@H]2c2ccc(Cl)cc2)c1 | – | inconclusive: 32.6 µM [cytotoxic, single point]

Row | Compound | activity change, negative = cytotoxicity | Potency
49 | CC(C)(C)c1ccc(Oc2ccc(N)cn2)cc1 | – | inconclusive: 32.6 µM [rising, single point]
50 | O=S(=O)(c1ccc(-c2csc(Nc3ccc(F)cc3)n2)cc1)N1CCCC1 | inactive: -13.9% | –
51 | COc1cc(C2C(C#N)=C(N)OC3=C2C(=O)CCC3)cc2c1OCO2 (stereo not given) | – | inconclusive: 29.1 µM [rising, single point]
52 | O=S1(=O)C[C@@H](O)[C@@H](Nc2ccc(Cl)cc2)C1 | – | inconclusive: 18.4 µM [rising, single point]
53 | COc1cccc(CC2(CO)CCCN(Cc3sc(N4CCCC4)nc3Cl)C2)c1 (stereo not given) | – | inconclusive: 8.2 µM [cytotoxic, partial curve]
54 | Cc1ccc2c(=O)c(C(=O)c3ccccc3)cn(CC(=O)Nc3ccccc3)c2n1 | – | inconclusive: 18.4 µM [rising, partial curve]
55 | COc1ccc(N2C(=NC(=O)C3CCCCC3)SC3CS(=O)(=O)CC32)cc1OC (stereo not given) | inconclusive: 32.7% | –
56 | O=C(NCc1ccc2c(c1)CCN2C(=O)c1ccncc1)c1ccc(Cl)cc1 | – | inconclusive: 4.11 µM [cytotoxic, full curve]
57 | CC(C(=O)NCc1ccccc1Cl)n1cc([N+](=O)[O-])cn1 (stereo not given) | inactive: -9.74% | –
58 | CCN(CC)S(=O)(=O)c1ccc(N2CCOCC2)c(NC(=O)c2cc(-c3ccccn3)nc3ccccc23)c1 | – | inconclusive: 7.31 µM [cytotoxic, partial curve]
59 | COc1cccc(-c2nnc3n(Cc4ccccc4Cl)c(=O)c4ccccc4n23)c1O | inactive: -29.8% | –
60 | COc1ccc(OC)c(NC(=O)CC2SC(=Nc3ccc(F)cc3)N(CCC3=CCCCC3)C2=O)c1 (stereo not given) | – | inconclusive: 29.1 µM [cytotoxic, single point]
61 | CCOC(=O)N1CCN(S(=O)(=O)c2ccc(F)c(C(=O)Nc3ccc(C)c(Cl)c3)c2)CC1 | – | inconclusive: 2.91 µM [cytotoxic, full curve]
62 | Cc1cc(C)nc(NC(=O)c2cccs2)c1 | – | inconclusive: 23.1 µM [rising, partial curve, poor fit]
63 | COc1ccc(NC(C)=O)cc1NC(=O)c1ccc(C#N)cc1 | – | inconclusive: 16.4 µM [cytotoxic, partial curve, poor fit]
64 | COc1ccccc1NC(=O)/C(C#N)=C/C=C/c1ccco1 | – | inconclusive: 0.231 µM [cytotoxic, full curve, poor fit]
65 | COc1cc(CC(=O)OCC(=O)NC2CCCCC2)cc(OC)c1OC | inactive: 0% | –
66 | Cc1c(=O)n(OCc2ccc(Cl)cc2)c2ccccc2[n+]1[O-] | – | inconclusive: 16.4 µM [cytotoxic, single point]
67 | CC(C)(C)c1nc2ccccc2c2nnc(SCC(=O)Nc3nccs3)n12 | – | inconclusive: 2.31 µM [cytotoxic, partial curve, poor fit]
68 | Cc1cc(C)n2nc(C(=O)OCC(=O)N(C)CC(=O)Nc3ccccc3Cl)nc2n1 | inactive: 20.8% | –
69 | CC(=O)NC(=S)Nc1ccc(NC(=S)NC(=O)c2cccs2)cc1 | – | inconclusive: 29.1 µM [rising, single point]
70 | CCOC(=O)C1=C(C)N(C[C@@H]2CC[C@@H](Cc3ccc4cc(OC)ccc4c3)O2)C(=O)NC1c1ccc(OC)cc1 (stereo not given in full) | – | inconclusive: 11.6 µM [cytotoxic, partial curve, poor fit]

3 entries drawn at random from those above, as already listed:
Row | Compound | activity change, negative = cytotoxicity | Potency
67 | CC(C)(C)c1nc2ccccc2c2nnc(SCC(=O)Nc3nccs3)n12 | – | inconclusive: 2.31 µM [cytotoxic, partial curve, poor fit]
54 | Cc1ccc2c(=O)c(C(=O)c3ccccc3)cn(CC(=O)Nc3ccccc3)c2n1 | – | inconclusive: 18.4 µM [rising, partial curve]
64 | COc1ccccc1NC(=O)/C(C#N)=C/C=C/c1ccco1 | – | inconclusive: 0.231 µM [cytotoxic, full curve, poor fit]
